Laboratory results: PubChem BioAssay AID540256 (National Center for Advancing Translational Sciences (NCATS), 2011)
Where “and” joins values, the source holds several entries; their conditions need not be identical. Equal entries are not always repeated. The whole screen tested about 300,000 compounds, of which about 3,700 (1.2%) were called active. The shares of active, inactive and inconclusive entries below differ from those in the screen. Calls come from the whole dose curve; tested in HEK293 cells. Potencies of inconclusive entries are doubtful fits and often do not repeat.

Experiment: qHTS for Inhibitors of binding or entry into cells for Lassa Virus; note: nearly all actives have a fitted effect of over 50% in size
Conditions: Lassa virus pseudotype entry inhibition, cell reporter; activity change, negative = inhibition: at 37.9 µM (top of the series) unless noted
% is set by controls: 0 for no effect and ±100 for the full control effect; potency is the fitted concentration of half-maximal effect.

SMILES	Potency	activity change, negative = inhibition
CN(CC(=O)Nc1ccc(C#N)cc1)Cc1ccc(Cl)cc1	inconclusive: 25.9 µM [inhibitor, partial curve, poor fit]	–
Cc1ccc(N(CC(=O)N2CCN(c3ccc(F)cc3)CC2)S(=O)(=O)c2c(C)noc2C)cc1	inconclusive: 11.2 µM [inhibitor, partial curve, poor fit]	–
O=C(CSc1nc2ccccc2c(=O)n1CCCN1CCOCC1)Nc1ccccc1OC(F)F	inconclusive: 35.5 µM [inhibitor, partial curve, poor fit]	–
Cc1ccc(NC2=C(Cl)C(=O)c3ccccc3C2=O)cc1	active: 12.6 µM	–
O=C(CSc1nnc(NC(=O)c2ccccc2Cl)s1)NC1CC1	inconclusive: 1.58 µM [activator, partial curve, poor fit]	–
CN(C(=O)COC(=O)c1ccc(F)c(S(=O)(=O)N2CCOCC2)c1)C1CCS(=O)(=O)C1 (stereo unspecified)	–	inconclusive: 12% [activator]
O=C(COc1ccc(Cl)cc1Cl)N/N=C/C1CC=CCC1 (stereo unspecified)	inconclusive: 35.5 µM [activator, single point]	–
COc1ccc(NC(=O)CCC(=O)N/N=C/c2ccc([N+](=O)[O-])s2)cc1	inconclusive: 17.8 µM [inhibitor, single point]	–
O=C(NCc1ccccn1)c1n[nH]c2ccccc12	–	inactive: -0.0598%
O=C(Cc1ccc(F)cc1)N1CCN(c2ccc(F)cc2)CC1	inconclusive: 22.4 µM [inhibitor, single point]	–
CC1CCN(S(=O)(=O)c2ccc(NC(=O)CNC3CCCCC3)cc2)CC1	inconclusive: 35.5 µM [activator, single point]	–
Cc1ccccc1-c1oc(C)c(C)[n+]1[O-]	–	inactive: 1.15%
Cc1nc(SCC(=O)N(C)Cc2ccco2)c2c(C)c(C)sc2n1	inconclusive: 29.1 µM [inhibitor, single point]	–
CC(C)CC(=O)NC1(C(F)(F)F)C(=O)Nc2c1c(=O)n(C)c(=O)n2C (stereo unspecified)	inconclusive: 3.55 µM [inhibitor, single point]	–
Cc1ccc(C(=O)NCCCN2CCOCC2)cc1N1CCCC1=O	inconclusive: 1.3 µM [activator, single point]	–
COc1ccc(NC(=S)N(Cc2cccnc2)Cc2cc3cc(OC)c(OC)cc3[nH]c2=O)cc1	–	inactive: -3.4%
COc1ccc(-n2nc3c(N4CCC(C(=O)NCc5ccccc5C)CC4)nnc(C)c3c2C)cc1	inconclusive: 17.8 µM [inhibitor, single point] and inconclusive: 3.16 µM [inhibitor, full curve]	–
CCNCC(=O)N1c2ccccc2CCc2ccc(NC(=O)OCC)cc21	inconclusive: 15.8 µM [inhibitor, single point]	–
CCOC(=O)N1CCC(NC(=O)c2c(C)nn(-c3cccc(C)c3)c2-n2cccc2)CC1	inconclusive: 0.562 µM [inhibitor, full curve, poor fit]	–
Cc1cc(F)ccc1NC(=O)CCS(=O)(=O)c1cc2c(cc1C)NC(=O)CO2	–	inactive: 5.56% [at 46.1 µM]
COc1ccc(OC)c(CCNC(=O)CCCn2c(=O)c3cccn3c3ccc(F)cc32)c1	–	inactive: -0.891% [at 46.1 µM]

SMILES	Potency	activity change, negative = inhibition
CCOC(=O)c1sc(NC(=O)CSc2nnnn2-c2ccc(C)c(C)c2)nc1C	inconclusive: 6.31 µM [inhibitor, single point]	–
O=C(NCc1ccco1)c1ccccc1Nc1ccc(F)cc1	inconclusive: 18.3 µM [inhibitor, single point]	–
O=C(NC1CCCCCC1)c1cc2ccccc2oc1=O	inconclusive: 3.16 µM [inhibitor, partial curve, poor fit]	–
CCOc1ccc(C2c3c(-c4cc(C)ccc4O)n[nH]c3C(=O)N2Cc2cccnc2)cc1OCC (stereo unspecified)	inconclusive: 1 µM [inhibitor, partial curve, poor fit]	–
CCCC1(CCC)NC(=O)N(CC(=O)Nc2ccccc2OC)C1=O	–	inactive: 0.0462%
COCCN(CCOC)C(=O)c1ccc(NS(=O)(=O)c2ccc3[nH]c(=O)[nH]c3c2)cc1	inconclusive: 6.31 µM [activator, single point]	–
CC(C)C(=O)Nc1cccc(C(=O)Nc2ccc(S(=O)(=O)N3CCOCC3)cc2)c1	inconclusive: 0.0891 µM [inhibitor, full curve, poor fit]	–
O=C(CC1NC(=O)NC1=O)Nc1ccccc1 (stereo unspecified)	inconclusive: 6.51 µM [activator, single point]	–
COc1cccc(Nc2nnc(SCN3C(=O)c4ccccc4C3=O)s2)c1	inconclusive: 11.2 µM [activator, partial curve, poor fit]	–
Cn1ncc(SCc2ccccc2)c(Cl)c1=O	inconclusive: 31.6 µM [inhibitor, single point]	–
CCOC(=O)C1(CC2CC2)CCN(Cc2cn(C)c3ccccc23)CC1	inconclusive: 12.6 µM [inhibitor, partial curve, poor fit]	–
COc1cc(/C=N/NC(=O)c2ccc(COc3cc(C)ccc3C(C)C)cc2)cc(OC)c1O	inconclusive: 28.2 µM [inhibitor, partial curve, poor fit]	–
COc1ccc2c(Cn3cnc4cc([N+](=O)[O-])ccc4c3=O)cc(=O)oc2c1	inconclusive: 5.62 µM [inhibitor, partial curve]	–
CC(C)c1ccc(S(=O)(=O)N2CCC(C(=O)NCC3(N(C)C)CCCCC3)CC2)cc1	–	inactive: 2.88%
COc1ccc(C(=O)Nc2nnc(Cc3ccccc3)s2)c(OC)c1	inconclusive: 0.501 µM [activator, full curve, poor fit]	–
Cc1cc(/C=C2\SC(=S)N(Cc3ccco3)C2=O)c(C)n1-c1cccnc1	–	inactive: 10.9%
Cc1onc(-c2ccccc2)c1C(=O)NCc1ccccc1F	–	inactive: -9.11%
COc1ccc(/C=N/NC(=O)Nc2cccc3nsnc23)cc1	inconclusive: 0.891 µM [inhibitor, single point]	–
CCCN(Cc1cc2cccc(C)c2[nH]c1=O)C(=O)c1cccc(Cl)c1	inconclusive: 4.47 µM [inhibitor, single point]	–
COc1ccc(C2C(=O)N(C3CCCCC3)CC(=O)N2Cc2ccco2)cc1 (stereo unspecified)	inconclusive: 7.3 µM [inhibitor, partial curve, poor fit]	–

Random excerpt: 2 entries already listed.
SMILES	Potency	activity change, negative = inhibition
Cc1ccccc1-c1oc(C)c(C)[n+]1[O-]	–	inactive: 1.15%
CC(C)CC(=O)NC1(C(F)(F)F)C(=O)Nc2c1c(=O)n(C)c(=O)n2C (stereo unspecified)	inconclusive: 3.55 µM [inhibitor, single point]	–
